# Hit rate of the full screen: of about 360,000 compounds, about 7,500 (2.1%) were called active. This list was built around the results that the source calls inconclusive (neither active nor inactive); the mix of calls is not that of the screen. The call rests on the fitted dose curve; in most records, active means well fitted inhibition curve with a large enough effect; inconclusive means small, poorly fitted or top-dose-only effect, or effect the other way; inactive means flat fitted curve, though single readings scatter. Potencies of inconclusive entries are doubtful fits and often do not repeat.
# Test: Nrf2 qHTS screen for inhibitors; further: nearly all actives have a fitted effect of over 60% in size
# Conditions: A549 ARE-Fluc reporter, luciferase luminescence, 18-24 h; activity change, negative = inhibition: at 46 µM (top of the series)
# Method in brief: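 Reporter: ARE-Fluc in A549. Exposure: 18-24 h, 37 °C, 5% CO2, 5% FBS OPTI-MEM. Readouts: fluorescent cytotoxicity (CellTiter-Fluor), then luminescent Nrf2 signal after BugLite.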
# On the % scale 0 is the no-effect control and ±100 the full control effect; potency means the concentration at half of the fitted maximal effect.
SMILES,Potency,"activity change, negative = inhibition"
CSCCC1NC(=O)N(CC(=O)Nc2cccc(S(=O)(=O)N3CCCCCC3)c2)C1=O (configuration not stated),"inconclusive: 29.1 µM [falling, single point]",
Cc1ccc(Oc2cc(NC(=O)CCCn3nc(C)c([N+](=O)[O-])c3C)cc([N+](=O)[O-])c2)cc1,"inconclusive: 20.6 µM [falling, single point]",
O=C(CCNS(=O)(=O)c1cccc(Cl)c1)OCC(=O)N1CCN(C(=O)c2ccco2)CC1,,inactive: 5.31%
OCCSc1nnc(Nc2ccccc2)s1,"inconclusive: 3.26 µM [activator, partial curve]",
Cc1ccc2nc(/C(C#N)=N/O)[nH]c2c1,"inconclusive: 4.61 µM [activator, partial curve, poor fit]",
O=C1c2ccccc2C(=O)C1c1ccc(Cl)cc1,"inconclusive: 32.6 µM [activator, single point]",
CCN(CC)Cc1c(-c2ccccc2)[nH]c2ccc(C)cc2c1=O,,inactive: 8.69%
COC(=O)C(C)Sc1nc2c(c(=O)n(C)c(=O)n2C)n1Cc1cccc(C)c1 (configuration not stated),,inactive: -11.1%
CSc1ccc(CN2CCN(Cc3ccc([N+](=O)[O-])cc3)CC2)cc1,active: 8.2 µM,
CCCn1c(N)c(C(=O)CSc2nnnn2-c2ccc(O)cc2)c(=O)n(C)c1=O,"inconclusive: 18.4 µM [falling, single point]",
Nc1ccc(C(=O)c2cccs2)cc1[N+](=O)[O-],"inconclusive: 1.3 µM [falling, partial curve]",
O=C(c1cccs1)N1CCN=C1SCc1cccnc1,"inconclusive: 3.26 µM [falling, partial curve, poor fit]",
COC(=O)CSc1nc2cc(OC)ccc2n1C,"inconclusive: 2.31 µM [falling, full curve, poor fit]",
O=C(Cn1cc(SCc2ccc(Br)cc2)c2ccccc21)N1CCCCC1,"inconclusive: 29.1 µM [falling, single point]",
Cn1nnnc1SCCCNCc1cccc(OCc2ccccc2F)c1,"inconclusive: 16.4 µM [activator, partial curve]",
C=CCc1ccccc1OCC(O)Cn1ccnc1C (configuration not stated),"inconclusive: 32.6 µM [falling, single point]",
Cc1noc(C)c1COc1ccc(C(=O)NCCc2ccc(F)cc2)cc1,"inconclusive: 29.1 µM [falling, partial curve, poor fit]",
O=C(Nc1ccc(Cl)cc1)c1cccc(S(=O)(=O)Nc2ccccn2)c1,"inconclusive: 20.6 µM [falling, single point]",
NC(=O)CSc1nnc(NC(=O)C23CC4CC(CC(C4)C2)C3)s1,"inconclusive: 20.6 µM [activator, partial curve, poor fit]",
O=C(Nc1ccc2nc3n(c(=O)c2c1)CCCCC3)c1ccccc1[N+](=O)[O-],,inactive: -4.51%
S=C(NCCCN(Cc1ccc(Cl)cc1)c1ccc(Br)cn1)NCc1ccc2nc[nH]c2c1,"inconclusive: 25.9 µM [falling, single point]",

# Laid out differently: two of the compounds above
SMILES	Potency	activity change, negative = inhibition
O=C(CCNS(=O)(=O)c1cccc(Cl)c1)OCC(=O)N1CCN(C(=O)c2ccco2)CC1		inactive: 5.31%
Nc1ccc(C(=O)c2cccs2)cc1[N+](=O)[O-]	inconclusive: 1.3 µM [falling, partial curve]	

# (further entries)

SMILES,Potency,"activity change, negative = inhibition"
CN(C)S(=O)(=O)c1ccc(C(=O)NCCSc2c(-c3ccc(Br)cc3)[nH]c3ccccc23)cc1,,inactive: -12.3% [at 9.27 µM]
COc1ccc(N2C(=O)CC(N3CCC(C(N)=O)CC3)C2=O)cc1 (configuration not stated),"inconclusive: 16.4 µM [activator, single point]",
Cc1c(Cl)cccc1N1CCn2c1nc1c2c(=O)n(CC(=O)O)c(=O)n1C,,inactive: -2.79%
COc1ccc(-c2csc(Nc3cccnc3)n2)cc1,"inconclusive: 18.4 µM [activator, partial curve]",
O=C(Cc1cccs1)NCCS(=O)(=O)N1CCN(c2cccc(Cl)c2)CC1,"inconclusive: 25.9 µM [falling, partial curve, poor fit]",
CSc1ccccc1OCc1cc(C(=O)N2CCCC(C)C2)no1 (configuration not stated),"inconclusive: 2.59 µM [activator, full curve]",
COCC(C)n1c(SCC(=O)Nc2sccc2C(N)=O)nc2ccccc2c1=O (configuration not stated),"inconclusive: 13 µM [falling, partial curve]",
O=C(Cc1csc(NC(=O)Nc2cccc(Cl)c2)n1)NC1CCCC1,"inconclusive: 29.1 µM [falling, single point]",
Cc1cccc(C)c1Nc1c(-c2ccc(N3CCOCC3)cc2)nc2ncccn12,"inconclusive: 23.1 µM [falling, partial curve, poor fit]",
CCOc1ccc(S(=O)(=O)c2c[nH]c3ccc(C)cc3c2=O)cc1,"inconclusive: 20.6 µM [falling, partial curve, poor fit]",
CC(=O)c1cnc(Nc2cccc(Cl)c2Cl)s1,"inconclusive: 16.4 µM [activator, partial curve]",
Cc1cccc(NC(=O)c2nc[nH]c2C(=O)N[C@@H](CC(C)C)C(=O)OC(C)(C)C)c1,"inconclusive: 23.1 µM [falling, single point]",
COc1ccc(-c2noc(-c3cccc(Cl)c3)n2)cc1OC,"inconclusive: 16.4 µM [activator, single point]",
O=C(Cn1nc(Cc2ccncc2)c2ccccc2c1=O)Nc1cccc(C(F)(F)F)c1,"inconclusive: 11.6 µM [falling, partial curve, poor fit]",
CSc1nsc(SC)c1NC(=O)OCCc1ccccn1,,inactive: 0.317%
CCN(CC)CCN(C(=O)c1ccco1)c1nc2c(C)c(C)ccc2s1,,inactive: 11.7%
CCc1ccc(S(=O)(=O)NCc2csc(C)n2)s1,"inconclusive: 11.6 µM [falling, partial curve]",
CCc1ccc(C2=NN(S(C)(=O)=O)C(c3cccs3)C2)cc1 (configuration not stated),"inconclusive: 7.31 µM [activator, partial curve]",
Cc1ccc(C(C)NC(=O)c2cc3ccccc3oc2=O)cc1C (configuration not stated),"inconclusive: 16.4 µM [falling, partial curve, poor fit]",
CCn1c(=O)cc(OCC(=O)N2CCN(c3ccc(C(C)=O)cc3)CC2)c2ccccc21,"inconclusive: 1.3 µM [activator, partial curve, poor fit]",
COc1cccc2sc(NC(=O)c3ccc(S(=O)(=O)N4CCOCC4)cc3)nc12,"inconclusive: 9.2 µM [falling, partial curve]",

# From PubChem BioAssay AID504444 (National Center for Advancing Translational Sciences (NCATS), 2011)
